Test [1] concerns the target Myc-tagged mitochondrial antiviral signaling protein (MAVS) (UniProt Q7Z434). Briefly: co-IP.
For test [2] the target is unchanged. The test can be described thus: co-IP. This is another data set of the same source.

The chains behind the UniProt entries cited, without tags or fusion partners.
UniProt Q7Z434: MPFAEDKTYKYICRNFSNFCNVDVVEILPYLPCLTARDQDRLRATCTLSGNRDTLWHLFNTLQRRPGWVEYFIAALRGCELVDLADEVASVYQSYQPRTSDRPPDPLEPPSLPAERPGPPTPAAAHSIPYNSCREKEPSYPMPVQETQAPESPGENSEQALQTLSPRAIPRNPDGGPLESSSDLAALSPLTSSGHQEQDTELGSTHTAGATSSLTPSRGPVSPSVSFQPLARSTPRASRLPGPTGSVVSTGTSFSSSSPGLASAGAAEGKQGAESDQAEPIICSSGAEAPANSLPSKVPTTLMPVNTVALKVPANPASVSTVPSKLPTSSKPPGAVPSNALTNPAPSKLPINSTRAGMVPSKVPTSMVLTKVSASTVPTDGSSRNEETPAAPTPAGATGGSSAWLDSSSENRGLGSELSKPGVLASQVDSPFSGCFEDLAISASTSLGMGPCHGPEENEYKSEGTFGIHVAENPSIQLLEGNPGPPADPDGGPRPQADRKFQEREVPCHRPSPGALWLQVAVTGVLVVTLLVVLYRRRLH

Where two headings read alike, the source gives them in different places. These are yes or no findings as the source states them, for the method shown. Binding seen in cells or lysates may run through a third protein. Some results given as binding are weak or reduced against the parent protein; the word gives no strength. For some assays here: Sequences can lack the tags named with a protein.

This is an account of results in publication PMC10100820.

For the molecule “Flag-tagged MDA5-S828A (phospho-null mutant) (from UniProt Q9BYX4 1-1025)”, the binding result in test [1] is listed as “binds”.

B1: Flag-tagged melanoma differentiation-associated gene 5 (MDA5), wild type (protein, UniProt Q9BYX4 1-1025)
chain: MSNGYSTDENFRYLISCFRARVKMYIQVEPVLDYLTFLPAEVKEQIQRTVATSGNMQAVELLLSTLEKGVWHLGWTREFVEALRRTGSPLAARYMNPELTDLPSPSFENAHDEYLQLLNLLQPTLVDKLLVRDVLDKCMEEELLTIEDRNRIAAAENNGNESGVRELLKRIVQKENWFSAFLNVLRQTGNNELVQELTGSDCSESNAEIENLSQVDGPQVEEQLLSTTVQPNLEKEVWGMENNSSESSFADSSVVSESDTSLAEGSVSCLDESLGHNSNMGSDSGTMGSDSDEENVAARASPEPELQLRPYQMEVAQPALEGKNIIICLPTGSGKTRVAVYIAKDHLDKKKKASEPGKVIVLVNKVLLVEQLFRKEFQPFLKKWYRVIGLSGDTQLKISFPEVVKSCDIIISTAQILENSLLNLENGEDAGVQLSDFSLIIIDECHHTNKEAVYNNIMRHYLMQKLKNNRLKKENKPVIPLPQILGLTASPGVGGATKQAKAEEHILKLCANLDAFTIKTVKENLDQLKNQIQEPCKKFAIADATREDPFKEKLLEIMTRIQTYCQMSPMSDFGTQPYEQWAIQMEKKAAKEGNRKERVCAEHLRKYNEALQINDTIRMIDAYTHLETFYNEEKDKKFAVIEDDSDEGGDDEYCDGDEDEDDLKKPLKLDETDRFLMTLFFENNKMLKRLAENPEYENEKLTKLRNTIMEQYTRTEESARGIIFTKTRQSAYALSQWITENEKFAEVGVKAHHLIGAGHSSEFKPMTQNEQKEVISKFRTGKINLLIATTVAEEGLDIKECNIVIRYGLVTNEIAMVQARGRARADESTYVLVAHSGSGVIEHETVNDFREKMMYKAIHCVQNMKPEEYAHKILELQMQSIMEKKMKTKRNIAKHYKNNPSLITFLCKNCSVLACSGEDIHVIEKMHHVNMTPEFKELYIVRENKALQKKCADYQINGEIICKCGQAWGTMMVHKGLDLPCLKIRNFVVVFKNNSTKKQYKKWVELPITFPNLDYSECCLFSDED
For B1, in test [2], the binding entry is on record as “binds”.
